Values quoted from earlier work, collected in patent US20090203763A1, “SUBSTITUTED BENZHYDRYLETHERS” (AUSPEX PHARMACEUTICALS, INC., priority 2008, published 2009).

The chains behind the UniProt entries cited, without tags or fusion partners.
UniProt P10635, whole entry: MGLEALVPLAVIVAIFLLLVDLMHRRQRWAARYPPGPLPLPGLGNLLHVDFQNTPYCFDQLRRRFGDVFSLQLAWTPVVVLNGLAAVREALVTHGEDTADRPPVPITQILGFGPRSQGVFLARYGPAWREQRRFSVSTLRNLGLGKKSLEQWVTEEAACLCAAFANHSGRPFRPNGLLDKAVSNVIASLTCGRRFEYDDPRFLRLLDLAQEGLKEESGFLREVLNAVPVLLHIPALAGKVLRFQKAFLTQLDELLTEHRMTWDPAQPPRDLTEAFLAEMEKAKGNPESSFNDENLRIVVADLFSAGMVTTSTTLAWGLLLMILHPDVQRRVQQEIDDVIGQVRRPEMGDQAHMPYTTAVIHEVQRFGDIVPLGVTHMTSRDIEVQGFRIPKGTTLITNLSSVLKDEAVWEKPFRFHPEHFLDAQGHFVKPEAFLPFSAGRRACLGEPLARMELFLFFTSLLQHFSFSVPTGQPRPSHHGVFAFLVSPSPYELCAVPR

Biological target: P450 cytochrome CYP2D6 (Homo sapiens, UniProt P10635)
Details: Hamelin et al. 1998; cited from earlier work

## CN1CCC[C@@H]1CCO[C@](C)(c1ccccc1)c1ccc(Cl)cc1 [Clemastine, 2-[2-[1-(4-chlorophenyl)-1-phenyl-ethoxy]ethyl]-1-methyl-pyrrolidine]
  inhibition of CYP2D6: potent inhibitor
